Source: PMC10119315
These are yes or no findings as the source states them, for the method shown. In cells and extracts the contact can be indirect. Binding can be weak; no strength is given.

The chains behind the UniProt entries cited, without tags or fusion partners. Where a name states a change or a piece, a line headed by the entry shows the natural chain unless it says otherwise. Residues count along the entry.
UniProt P01137: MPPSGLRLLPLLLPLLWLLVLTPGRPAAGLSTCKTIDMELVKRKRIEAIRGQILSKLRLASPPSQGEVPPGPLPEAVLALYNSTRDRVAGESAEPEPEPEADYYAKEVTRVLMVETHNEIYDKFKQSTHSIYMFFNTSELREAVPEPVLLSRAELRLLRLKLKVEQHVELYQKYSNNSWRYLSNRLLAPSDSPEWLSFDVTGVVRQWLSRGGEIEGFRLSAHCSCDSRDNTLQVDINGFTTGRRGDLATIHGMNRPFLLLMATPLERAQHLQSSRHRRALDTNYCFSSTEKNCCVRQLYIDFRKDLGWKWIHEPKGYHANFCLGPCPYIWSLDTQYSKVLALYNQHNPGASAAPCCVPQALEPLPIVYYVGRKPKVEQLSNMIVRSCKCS
UniProt Q61738, residues 34-1179: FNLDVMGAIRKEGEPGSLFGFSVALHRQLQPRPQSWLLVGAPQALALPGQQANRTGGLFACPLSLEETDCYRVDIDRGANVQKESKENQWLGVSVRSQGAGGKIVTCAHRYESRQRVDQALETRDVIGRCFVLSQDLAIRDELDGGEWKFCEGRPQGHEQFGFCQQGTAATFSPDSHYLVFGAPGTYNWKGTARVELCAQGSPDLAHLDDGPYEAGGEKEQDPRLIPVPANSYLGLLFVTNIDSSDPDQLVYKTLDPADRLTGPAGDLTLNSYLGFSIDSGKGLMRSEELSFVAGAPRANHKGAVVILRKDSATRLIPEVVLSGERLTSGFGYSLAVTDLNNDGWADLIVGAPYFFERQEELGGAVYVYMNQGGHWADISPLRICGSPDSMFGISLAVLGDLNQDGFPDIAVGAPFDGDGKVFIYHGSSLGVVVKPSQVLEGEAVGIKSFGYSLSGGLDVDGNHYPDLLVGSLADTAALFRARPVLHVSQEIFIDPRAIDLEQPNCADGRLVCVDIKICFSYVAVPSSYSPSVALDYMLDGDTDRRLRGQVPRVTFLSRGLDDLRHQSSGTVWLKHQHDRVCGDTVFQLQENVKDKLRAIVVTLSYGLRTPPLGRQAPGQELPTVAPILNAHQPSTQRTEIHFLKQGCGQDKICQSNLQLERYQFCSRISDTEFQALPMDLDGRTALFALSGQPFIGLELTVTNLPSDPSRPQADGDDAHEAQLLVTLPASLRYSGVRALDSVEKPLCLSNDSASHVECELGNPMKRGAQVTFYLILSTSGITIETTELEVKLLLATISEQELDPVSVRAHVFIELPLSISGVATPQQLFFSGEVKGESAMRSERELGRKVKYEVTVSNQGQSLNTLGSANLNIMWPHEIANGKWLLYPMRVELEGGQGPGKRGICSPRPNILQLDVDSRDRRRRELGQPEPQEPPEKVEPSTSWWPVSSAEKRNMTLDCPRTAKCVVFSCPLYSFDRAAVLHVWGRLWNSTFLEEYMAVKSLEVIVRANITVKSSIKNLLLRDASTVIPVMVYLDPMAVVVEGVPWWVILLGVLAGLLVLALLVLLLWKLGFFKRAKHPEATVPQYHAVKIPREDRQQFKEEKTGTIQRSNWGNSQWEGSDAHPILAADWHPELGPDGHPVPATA

Target: LAP-TGF-β1-RGD^del-GFP (overexpressed in VSMCs) (human) (UniProt P01137)
Test: co-IP; VSMCs (MOVAS) transfected with the GFP-tagged LAP-TGF-β1 only; endogenous integrin α7; same lysis buffer; antibody against GFP or control IgG, Protein A/G agarose; Western blot

endogenous integrin α7 (VSMCs) (from UniProt Q61738 34-1179) (receptor)
binding: binds
